From the supplement of paper PMC4604168 (melanoma cell lines)
The list shows a part of the results. Many values rest on one well or one pass, so single values are uncertain.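 Imaging used 1,536-well plates; nuclei positive for cleaved PARP by antibody were divided by total DNA-stained nuclei to yield the apoptosis fraction. Doses for screening kept most cells viable, and cell lines differ markedly in resting and induced cleaved-PARP levels.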

How the values were obtained:
Experiment in all cases: cleaved PARP positive nuclei fraction relative to DMSO control; melanoma cells; higher = more apoptosis
Settings in all cases: library dose: low library concentration; 72 h
A101D = tested on: A101D
A2058 = tested on: A2058
A375 = tested on: A375
C32 = tested on: C32
CBRC013 = tested on: CBRC013 (line from a melanoma biopsy)
CBRC014 = tested on: CBRC014 (line from a melanoma biopsy)
CBRC016 = tested on: CBRC016 (line from a melanoma biopsy)
CBRC017 = tested on: CBRC017 (line from a melanoma biopsy)
501Mel = tested on: 501Mel

Row | SMILES | cleaved PARP positive nuclei fraction (A101D) | cleaved PARP positive nuclei fraction (A2058) | cleaved PARP positive nuclei fraction (A375) | cleaved PARP positive nuclei fraction (C32) | cleaved PARP positive nuclei fraction (CBRC013) | cleaved PARP positive nuclei fraction (CBRC014) | cleaved PARP positive nuclei fraction (CBRC016) | cleaved PARP positive nuclei fraction (CBRC017) | cleaved PARP positive nuclei fraction (501Mel)
1 | O=C(O)C(=O)Nc1sc2c(c1C(=O)O)CCNC2 + COc1cc(N2CCC(N3CCN(C)CC3)CC2)ccc1Nc1ncc(Cl)c(Nc2ccccc2S(=O)(=O)C(C)C)n1 [NVP-TAE684] (first compound 1.66667 µM, partner dose 0.08 µM) | 60.8% | 23.9% | 91.5% | 75.8% | 1040% | 82.3% | 155% | 145% | –
2 | CCN(CC)CCCCNc1ncc2cc(-c3cc(OC)cc(OC)c3)c(NC(=O)NC(C)(C)C)nc2n1 + O=C1NC(=O)/C(=C/c2ccc(-c3ccc(F)cc3O)o2)S1 [AS252424] (first compound 0.1 µM, partner dose 1 µM) | 95.3% | 70.3% | 163% | 172% | 60.7% | 210% | 90.8% | 82.9% | 108%
3 | O=C(Nc1ccccc1)c1cc([N+](=O)[O-])ccc1Cl + Cc1cc([N+](=O)[O-])ccc1NS(=O)(=O)c1cc(Cl)ccc1Cl [FH535] (first compound 2 µM, partner dose 1 µM) | 189% | 45.3% | 367% | 138% | 125% | 151% | 1940% | 830% | –
4 | CN(NC(=O)CC(=O)NN(C)C(=S)c1ccccc1)C(=S)c1ccccc1 + CCN(CC)CCCCNc1ncc2cc(-c3cc(OC)cc(OC)c3)c(NC(=O)NC(C)(C)C)nc2n1 [PD173074] (first compound 0.006 µM, partner dose 0.1 µM) | 234% | 236% | 6170% | 105% | 209% | 756% | 151% | 166% | 151%
5 | CCN(CC)CCCCNc1ncc2cc(-c3cc(OC)cc(OC)c3)c(NC(=O)NC(C)(C)C)nc2n1 + COc1ccc(COc2ccc(Cc3cnc(N)nc3N)cc2OC)cc1 [GW2580] (first compound 0.1 µM, partner dose 1 µM) | 195% | 61.2% | 131% | 39.5% | 200% | 83.9% | – | 76.9% | 81.5%
6 | COc1cc2c(Oc3ccc4[nH]c(C)cc4c3F)ncnc2cc1OCCCN1CCCC1 [cediranib] + O=c1cc(-c2cccc3c2Sc2ccccc2S3)oc(N2CCOCC2)c1 [KU55933] (first compound 0.4 µM, partner dose 1 µM) | 104% | 52.3% | 90.8% | 128% | 110% | 74.3% | 81.6% | 86.8% | –
7 | COc1cc2ncnc(Nc3ccc(Oc4ccccc4)cc3)c2cc1OC + O=C1NC(=O)/C(=C/c2ccc(-c3ccc(F)cc3O)o2)S1 [AS252424] (first compound 2 µM, partner dose 1 µM) | 117% | 89.7% | 44.8% | 69.5% | 68.2% | 94.1% | 83.7% | 87.8% | –
8 | CCc1ccc(CCOc2ccc(CC3SC(=O)NC3=O)cc2)nc1 (stereo not drawn) [pioglitazone] + COC(=O)c1sccc1S(=O)(=O)Nc1ccc(Nc2ccccc2)cc1OC [GSK0660] (first compound 2 µM, partner dose 1 µM) | 145% | 86% | 72.5% | 86.6% | 162% | 103% | 74% | 74.1% | 125%
9 | COC(=O)c1sccc1S(=O)(=O)Nc1ccc(Nc2ccccc2)cc1OC + COc1ccc(-c2ccc3c(N4CCOCC4)nc(N4C[C@@H](C)O[C@@H](C)C4)nc3n2)cc1CO [KU0063794] (first compound 1 µM, partner dose 0.02 µM) | 57.9% | 77% | 101% | 89.8% | 954% | 123% | 81.2% | 116% | –
10 | CN(NC(=O)CC(=O)NN(C)C(=S)c1ccccc1)C(=S)c1ccccc1 + O=c1cc(-c2cccc3c2Sc2ccccc2S3)oc(N2CCOCC2)c1 [KU55933] (first compound 0.006 µM, partner dose 1 µM) | 265% | 202% | 1490% | 139% | 76.1% | 447% | 163% | 141% | 389%
11 | COC(=O)c1sccc1S(=O)(=O)Nc1ccc(Nc2ccccc2)cc1OC + O=C(O)C(=O)Nc1sc2c(c1C(=O)O)CCNC2 [TCS401] (first compound 1 µM, partner dose 1.66667 µM) | 108% | 103% | 150% | 69.5% | 408% | 104% | 31.9% | 94.8% | –
12 | COc1cc2c(Oc3ccc4[nH]c(C)cc4c3F)ncnc2cc1OCCCN1CCCC1 [cediranib] + c1cc(-c2cnn3cc(-c4ccc(OCCN5CCCCC5)cc4)cnc23)ccn1 [Dorsomorphin] (first compound 0.4 µM, partner dose 0.4 µM) | 122% | 53.3% | 114% | 327% | 124% | 229% | 114% | 78.8% | –
13 | CCCCCCCCCCCC1=C(O)C(=O)C=C(O)C1=O [Embelin] + O=c1cc(-c2cccc3c2Sc2ccccc2S3)oc(N2CCOCC2)c1 [KU55933] (first compound 1.2 µM, partner dose 1 µM) | 172% | 114% | 128% | 43.4% | 113% | 91.3% | 81.6% | 80.8% | –

Part of the list above, with tabs:
Row	SMILES	cleaved PARP positive nuclei fraction (A101D)	cleaved PARP positive nuclei fraction (A2058)	cleaved PARP positive nuclei fraction (A375)	cleaved PARP positive nuclei fraction (C32)	cleaved PARP positive nuclei fraction (CBRC013)	cleaved PARP positive nuclei fraction (CBRC014)	cleaved PARP positive nuclei fraction (CBRC016)	cleaved PARP positive nuclei fraction (CBRC017)	cleaved PARP positive nuclei fraction (501Mel)
4	CN(NC(=O)CC(=O)NN(C)C(=S)c1ccccc1)C(=S)c1ccccc1 + CCN(CC)CCCCNc1ncc2cc(-c3cc(OC)cc(OC)c3)c(NC(=O)NC(C)(C)C)nc2n1 [PD173074] (first compound 0.006 µM, partner dose 0.1 µM)	234%	236%	6170%	105%	209%	756%	151%	166%	151%
10	CN(NC(=O)CC(=O)NN(C)C(=S)c1ccccc1)C(=S)c1ccccc1 + O=c1cc(-c2cccc3c2Sc2ccccc2S3)oc(N2CCOCC2)c1 [KU55933] (first compound 0.006 µM, partner dose 1 µM)	265%	202%	1490%	139%	76.1%	447%	163%	141%	389%
